Results from paper PMC4772809, “Network of protein interactions within the Drosophila inner kinetochore” (Open Biology, 2016).
Results are given in words; binding and its absence hold for the method and conditions named. In cells and extracts the contact can be indirect. A yes stands for co-enrichment or nearness to the bait. Other partners may have been found. A no says only that the protein was not detected with the bait. Sequences can lack the tags named with a protein.

Legend:
[1] = biological target: T1, GFP-tagged CENP-C^(1–94: F26A,F29A) (Drosophila melanogaster) (UniProt Q9VHP9); assay: affinity purification with mass spectrometry; GFP-tagged bait expressed in D.mel-2 cells; lysate (10 mM Tris pH 7.5, 200 mM NaCl, 0.5 mM EGTA, 0.5% NP-40, 1 mM DTT, 5% glycerol, DNase I) on GFP-Trap agarose 2 h 4 °C; endogenous preys identified by MS
T1 sequence: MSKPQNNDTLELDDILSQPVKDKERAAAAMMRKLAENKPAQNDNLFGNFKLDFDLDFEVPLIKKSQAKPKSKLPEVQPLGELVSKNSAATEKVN

[2] = biological target: T2, GFP-tagged full-length CENP-C^F26A,F29A (Drosophila melanogaster) (UniProt Q9VHP9); assay: as above
T2 sequence: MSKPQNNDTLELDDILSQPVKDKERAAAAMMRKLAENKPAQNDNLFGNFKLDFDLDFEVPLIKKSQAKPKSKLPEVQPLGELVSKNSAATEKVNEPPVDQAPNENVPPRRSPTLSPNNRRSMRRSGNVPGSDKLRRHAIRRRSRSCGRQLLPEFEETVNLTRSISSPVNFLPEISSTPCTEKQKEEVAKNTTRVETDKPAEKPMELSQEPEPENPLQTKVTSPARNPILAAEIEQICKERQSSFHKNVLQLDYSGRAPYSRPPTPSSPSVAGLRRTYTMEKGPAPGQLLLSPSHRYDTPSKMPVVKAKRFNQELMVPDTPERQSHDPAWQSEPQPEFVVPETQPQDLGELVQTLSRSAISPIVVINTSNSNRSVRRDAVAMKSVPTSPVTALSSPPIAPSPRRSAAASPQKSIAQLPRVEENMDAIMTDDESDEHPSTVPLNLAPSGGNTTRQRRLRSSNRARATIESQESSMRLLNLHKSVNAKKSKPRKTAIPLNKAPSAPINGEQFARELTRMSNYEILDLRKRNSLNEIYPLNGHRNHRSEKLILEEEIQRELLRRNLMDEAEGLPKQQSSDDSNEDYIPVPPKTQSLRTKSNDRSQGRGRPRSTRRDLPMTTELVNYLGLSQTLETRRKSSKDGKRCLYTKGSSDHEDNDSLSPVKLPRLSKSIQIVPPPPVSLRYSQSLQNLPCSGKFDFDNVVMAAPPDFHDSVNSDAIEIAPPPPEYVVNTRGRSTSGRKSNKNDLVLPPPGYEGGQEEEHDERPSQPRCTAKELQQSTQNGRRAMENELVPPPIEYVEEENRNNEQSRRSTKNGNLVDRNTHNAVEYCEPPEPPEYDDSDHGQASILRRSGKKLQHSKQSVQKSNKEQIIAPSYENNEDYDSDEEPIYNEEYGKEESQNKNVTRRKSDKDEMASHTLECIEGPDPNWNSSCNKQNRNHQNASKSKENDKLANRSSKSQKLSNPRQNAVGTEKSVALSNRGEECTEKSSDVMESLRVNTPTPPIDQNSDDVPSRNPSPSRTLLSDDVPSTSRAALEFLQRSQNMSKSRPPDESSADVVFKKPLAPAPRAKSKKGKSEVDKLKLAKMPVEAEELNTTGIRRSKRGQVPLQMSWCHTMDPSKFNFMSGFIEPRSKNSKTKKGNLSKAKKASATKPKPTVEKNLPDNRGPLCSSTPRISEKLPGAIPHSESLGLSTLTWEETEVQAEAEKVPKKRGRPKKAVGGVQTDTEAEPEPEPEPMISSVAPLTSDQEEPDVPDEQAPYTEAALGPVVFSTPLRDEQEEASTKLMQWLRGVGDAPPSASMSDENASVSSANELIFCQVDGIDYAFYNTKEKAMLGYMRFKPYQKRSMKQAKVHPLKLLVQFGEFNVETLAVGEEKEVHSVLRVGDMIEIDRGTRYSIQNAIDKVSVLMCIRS

binding [1]: no binding | binding [2]: no binding
Substance: Nnf1a (endogenous, D.mel-2 cells)
